PubChem BioAssay AID248 (DTP/NCI, 2004)
The list does not hold the whole screen: it is rich in T/C values a quarter to a half above the control, in often repeated tests (any T/C) and in doses without a T/C. Other doses and runs of a compound stand elsewhere. T/C is the treated group as % of the vehicle group. Some entries give survivors of the animals treated and no T/C: the source holds a T/C of zero for them, seemingly a mark for toxic or unscored doses. Some survivor counts are full or nearly so, which does not show that the dose was tolerated: the source hardly ever lists a survival T/C far under the control, and the zero likely stands for such cases as well. Survivors were counted at the toxicity check, usually on the fifth day, unless a day is given; later deaths do not show. Schedules are NCI's codes, taken here to give the interval after Q, in days (D) or hours (H), and the number of doses after X. Some entries were tested several times; the results are listed from low to high. Some schedules carry Z or #; the key to these is not given. For survival time, this PubChem deposit counts one and a half times the control or more as active, and values a quarter to a half above the control carry no call in these data; other NCI protocols may use other cut-offs. Some T/C values carry the count of animals alive at the toxicity check (mostly the fifth day); where none is given, no animal had died by that day.

System: L1210 leukemia ip in BDF1 mice, survival T/C
Experiment: NCI In Vivo Anticancer Drug Screen. Data for tumor model L1210 Leukemia (intraperitoneal) in B6D2F1 (BDF1) mice
Conditions: higher T/C = longer survival
[1] = T/C endpoint: mean survival time, dose: 2.0 mg/kg/injection, schedule: Q04DX003 (ip), vehicle: saline
[2] = T/C endpoint: mean survival time, dose: 4.0 mg/kg/injection, schedule: Q01DX001 (ip), vehicle: saline
[3] = T/C endpoint: mean survival time, dose: 7.5 mg/kg/injection, schedule: Q01DX001 (ip), vehicle: saline
[4] = T/C endpoint: mean survival time, dose: 8.0 mg/kg/injection, schedule: Q01DX001 (ip), vehicle: saline
[5] = T/C endpoint: mean survival time, dose: 100.0 mg/kg/injection, schedule: Q01DX009 (ip), vehicle: Klucel (hydroxypropylcellulose) (HPC)

Structure (SMILES): COc1cc2c(c(OC)c1OC)-c1ccc(OC)c(=O)cc1[C@@H](NC(C)=O)CC2
- T/C (T/C endpoint: mean survival time, dose: 0.5 mg/kg/injection, schedule: Q04DX003 (ip), vehicle: saline): 134 % of control
- T/C (T/C endpoint: mean survival time, dose: 0.5 mg/kg/injection, schedule: Q08DX002 (ip), vehicle: saline): 125 % of control
- T/C (T/C endpoint: mean survival time, dose: 1.0 mg/kg/injection, schedule: Q01DX001 (ip), vehicle: saline): 126 % of control
- T/C (T/C endpoint: mean survival time, dose: 1.0 mg/kg/injection, schedule: Q04DX003 (ip), vehicle: saline): 141 % of control
- T/C (T/C endpoint: mean survival time, dose: 1.0 mg/kg/injection, schedule: Q08DX002 (ip), vehicle: saline): 131 % of control
- T/C (T/C endpoint: mean survival time, dose: 2.0 mg/kg/injection, schedule: Q01DX001 (ip), vehicle: saline): 132 % of control
- T/C [1]: 128 % of control [9 of 10 alive]
- survivor count [1]: 3 of 6
- T/C (T/C endpoint: mean survival time, dose: 2.0 mg/kg/injection, schedule: Q08DX002 (ip), vehicle: saline): 129 % of control [9 of 10 alive]
- T/C (T/C endpoint: mean survival time, dose: 2.4 mg/kg/injection, schedule: Q## X032 (ip), vehicle: saline): 133 % of control
- T/C (T/C endpoint: mean survival time, dose: 2.5 mg/kg/injection, schedule: Q01DX001 (ip), vehicle: saline): 134 % of control
- T/C (T/C endpoint: mean survival time, dose: 3.0 mg/kg/injection, schedule: Q## X004 (ip), vehicle: saline): 141 % of control
- T/C [2]: 127 % of control [7 of 10 alive]
- survivor count (T/C endpoint: mean survival time, dose: 4.0 mg/kg/injection, schedule: Q01DX005 (oral), vehicle: saline): 2 of 10
- survivor count (T/C endpoint: mean survival time, dose: 4.0 mg/kg/injection, schedule: Q04DX003 (ip), vehicle: saline): 8 of 10 and 6 of 6
- T/C (T/C endpoint: mean survival time, dose: 5.0 mg/kg/injection, schedule: Q01DX001 (ip), vehicle: saline): 146 % of control [9 of 10 alive]
- survivor count (T/C endpoint: mean survival time, dose: 5.4 mg/kg/injection, schedule: Q## X032 (ip), vehicle: saline): 8 of 10
- T/C [3]: 143 % of control [8 of 10 alive]
- survivor count [3]: 0 of 6 and 1 of 6
- survivor count [4]: 5 of 10
- survivor count (T/C endpoint: mean survival time, dose: 8.0 mg/kg/injection, schedule: Q01DX001 (iv), vehicle: saline): 0 of 10
- survivor count (T/C endpoint: mean survival time, dose: 8.0 mg/kg/injection, schedule: Q08DX002 (ip), vehicle: saline): 3 of 10
- survivor count (T/C endpoint: mean survival time, dose: 11.2 mg/kg/injection, schedule: Q01DX001 (ip), vehicle: saline): 0 of 6 and 1 of 6
- survivor count (T/C endpoint: mean survival time, dose: 11.25 mg/kg/injection, schedule: Q01DX001 (ip), vehicle: saline): 1 of 10
- survivor count (T/C endpoint: mean survival time, dose: 16.0 mg/kg/injection, schedule: Q01DX001 (oral), vehicle: saline): 1 of 10
- survivor count (T/C endpoint: mean survival time, dose: 32.0 mg/kg/injection, schedule: Q01DX001 (oral), vehicle: saline): 0 of 10
- T/C (T/C endpoint: mean survival time, dose: 250.0 micrograms/kg/injection, schedule: Q01DX009 (ip), vehicle: saline): 132 % of control
- T/C (T/C endpoint: mean survival time, dose: 250.0 micrograms/kg/injection, schedule: Q03HX008 (ip), vehicle: saline): 135 % of control [9 of 10 alive]
- T/C (T/C endpoint: mean survival time, dose: 500.0 micrograms/kg/injection, schedule: Q01DX009 (ip), vehicle: saline): 136 % of control
- survivor count (T/C endpoint: mean survival time, dose: 500.0 micrograms/kg/injection, schedule: Q03HX008 (ip), vehicle: saline): 0 of 10
- survivor count (T/C endpoint: mean survival time, dose: 500.0 micrograms/kg/injection, schedule: Q03HX016 (ip), vehicle: saline): 0 of 10
- survivor count (T/C endpoint: mean survival time, dose: 500.0 micrograms/kg/injection, schedule: Q03HX024 (ip), vehicle: saline): 0 of 10
- survivor count (T/C endpoint: mean survival time, dose: 1000.0 micrograms/kg/injection, schedule: Q03HX008 (ip), vehicle: saline): 0 of 10
- survivor count (T/C endpoint: mean survival time, dose: 1000.0 micrograms/kg/injection, schedule: Q03HX016 (ip), vehicle: saline): 0 of 10
- T/C (T/C endpoint: median survival time, dose: 0.16 mg/kg/injection, schedule: Q01DX009 (ip), vehicle: saline): 127 % of control

Structure (SMILES): Nc1nc(N)c(-c2ccc(Cl)c(Cl)c2)c(C[P+](c2ccccc2)(c2ccccc2)c2ccccc2)n1
- survivor count (T/C endpoint: mean survival time, dose: 150.0 mg/kg/injection, schedule: Q01DX001 (ip), vehicle: saline): 1 of 6
- survivor count (T/C endpoint: mean survival time, dose: 300.0 mg/kg/injection, schedule: Q01DX001 (ip), vehicle: saline): 2 of 6

Structure (SMILES): CCCCCN(CCCCC)CCCNc1c2c(nc3ccc(OC)cc13)CCCC2
- survivor count (T/C endpoint: mean survival time, dose: 30.0 mg/kg/injection, schedule: Q01DX001 (ip), vehicle: saline): 3 of 6
- survivor count (T/C endpoint: mean survival time, dose: 40.0 mg/kg/injection, schedule: Q01DX001 (ip), vehicle: saline): 0 of 4
- survivor count (T/C endpoint: mean survival time, dose: 50.0 mg/kg/injection, schedule: Q01DX001 (ip), vehicle: saline): 0 of 4 and 1 of 4
- survivor count (T/C endpoint: mean survival time, dose: 80.0 mg/kg/injection, schedule: Q01DX001 (ip), vehicle: saline): 0 of 4
- survivor count (T/C endpoint: mean survival time, dose: 100.0 mg/kg/injection, schedule: Q01DX001 (ip), vehicle: saline): 0 of 4
- survivor count (T/C endpoint: mean survival time, dose: 200.0 mg/kg/injection, schedule: Q01DX001 (ip), vehicle: saline): 0 of 4
- survivor count (T/C endpoint: mean survival time, dose: 400.0 mg/kg/injection, schedule: Q01DX001 (ip), vehicle: saline): 0 of 4

Structure (SMILES): Cc1c2oc3c(C)ccc(C(=O)NC4C(=O)NC(C(C)C)C(=O)N5CCCCC5C(=O)N(C)CC(=O)N(C)C(C(C)C)C(=O)OC4C)c3nc-2c(C(=O)NC2C(=O)NC(C(C)C)C(=O)N3CCCCC3C(=O)N(C)CC(=O)N(C)C(C(C)C)C(=O)OC2C)c(N)c1=O (stereo not drawn)
- survivor count (T/C endpoint: mean survival time, dose: 2.0 mg/kg/injection, schedule: Q01DX009 (ip), vehicle: water): 6 of 6
- T/C [2]: 127 [4 of 6 alive] and 137 % of control
- survivor count (T/C endpoint: mean survival time, dose: 4.0 mg/kg/injection, schedule: Q01DX009 (ip), vehicle: water): 2 of 6
- survivor count [4]: 1 of 6
- survivor count (T/C endpoint: mean survival time, dose: 16.0 mg/kg/injection, schedule: Q01DX001 (ip), vehicle: saline): 1 of 6

Structure (SMILES): Nc1cccc(OCCCCc2ccccc2)c1
- survivor count (T/C endpoint: mean survival time, dose: 400.0 mg/kg/injection, schedule: Q04DX003 (ip), vehicle: saline with Tween-80): 5 of 6

Structure (SMILES): C[n+]1ccc(/C(N)=N/O)cc1
- survivor count (T/C endpoint: mean survival time, dose: 400.0 mg/kg/injection, schedule: Q04DX003 (ip), vehicle: saline): 3 of 6

Structure (SMILES): CCCCSN1CCCCC1
- survivor count (T/C endpoint: mean survival time, dose: 400.0 mg/kg/injection, schedule: Q04DX002 (ip), vehicle: saline with Tween-80): 0 of 3

Structure (SMILES): Nc1ccc(S(=O)c2ccc(N)cc2)cc1
- survivor count (T/C endpoint: mean survival time, dose: 100.0 mg/kg/injection, schedule: Q04DX002 (ip), vehicle: other): 0 of 3
- survivor count (T/C endpoint: mean survival time, dose: 200.0 mg/kg/injection, schedule: Q04DX002 (ip), vehicle: other): 0 of 3
- survivor count (T/C endpoint: mean survival time, dose: 400.0 mg/kg/injection, schedule: Q04DX002 (ip), vehicle: other): 0 of 3

Structure (SMILES): CCC(CC)(CCN(C)C)c1ccccc1
- survivor count (T/C endpoint: mean survival time, dose: 400.0 mg/kg/injection, schedule: Q01DX001 (ip), vehicle: carboxymethylcellulose (CMC)): 0 of 4

Structure (SMILES): NC(CCl)=NCC1CCCCCCC1
- survivor count (T/C endpoint: mean survival time, dose: 6.25 mg/kg/injection, schedule: Q01DX009 (ip), vehicle: Klucel (hydroxypropylcellulose) (HPC)): 3 of 3
- survivor count (T/C endpoint: mean survival time, dose: 12.5 mg/kg/injection, schedule: Q01DX009 (ip), vehicle: Klucel (hydroxypropylcellulose) (HPC)): 3 of 3
- survivor count (T/C endpoint: mean survival time, dose: 25.0 mg/kg/injection, schedule: Q01DX009 (ip), vehicle: Klucel (hydroxypropylcellulose) (HPC)): 3 of 3
- survivor count (T/C endpoint: mean survival time, dose: 50.0 mg/kg/injection, schedule: Q01DX009 (ip), vehicle: Klucel (hydroxypropylcellulose) (HPC)): 2 of 3
- survivor count [5]: 0 of 3
- survivor count (T/C endpoint: mean survival time, dose: 200.0 mg/kg/injection, schedule: Q04DX002 (ip), vehicle: Klucel (hydroxypropylcellulose) (HPC)): 0 of 3
- survivor count (T/C endpoint: mean survival time, dose: 400.0 mg/kg/injection, schedule: Q04DX002 (ip), vehicle: Klucel (hydroxypropylcellulose) (HPC)): 0 of 3

Structure (SMILES): N#CC=P(c1ccccc1)(c1ccccc1)c1ccccc1
- survivor count (T/C endpoint: mean survival time, dose: 100.0 mg/kg/injection, schedule: Q01DX009 (ip), vehicle: saline): 6 of 6
- survivor count (T/C endpoint: mean survival time, dose: 200.0 mg/kg/injection, schedule: Q01DX009 (ip), vehicle: saline): 6 of 6

Structure (SMILES): N#CCCC(=O)c1ccccn1
- survivor count [5]: 6 of 6

Structure (SMILES): Nc1cnccc1N1CCN(c2ccc(Cl)c(Cl)c2)CC1
- survivor count (T/C endpoint: mean survival time, dose: 200.0 mg/kg/injection, schedule: Q01DX009 (ip), vehicle: gum acacia): 6 of 6
- survivor count (T/C endpoint: mean survival time, dose: 400.0 mg/kg/injection, schedule: Q01DX009 (ip), vehicle: gum acacia): 0 of 6
